Source: PubChem BioAssay AID1439 (NMMLSC, 2008)
Values joined by “and” are separate entries in the source; they are usually repeats but may differ in a detail not shown here. Equal values may be shown once. About 770 (0.35%) of roughly 220,000 compounds were called active. The shares of active, inactive and inconclusive entries below differ from those in the screen. No stated cut-off is given here; in the data, active means binding response below about 49% or above about 150%; inconclusive means no clear call, values can overlap the other calls; inactive means in between.

Sequences of proteins named here, by UniProt entry; tags and fusion partners are left off.
UniProt P09471, whole entry, looked up: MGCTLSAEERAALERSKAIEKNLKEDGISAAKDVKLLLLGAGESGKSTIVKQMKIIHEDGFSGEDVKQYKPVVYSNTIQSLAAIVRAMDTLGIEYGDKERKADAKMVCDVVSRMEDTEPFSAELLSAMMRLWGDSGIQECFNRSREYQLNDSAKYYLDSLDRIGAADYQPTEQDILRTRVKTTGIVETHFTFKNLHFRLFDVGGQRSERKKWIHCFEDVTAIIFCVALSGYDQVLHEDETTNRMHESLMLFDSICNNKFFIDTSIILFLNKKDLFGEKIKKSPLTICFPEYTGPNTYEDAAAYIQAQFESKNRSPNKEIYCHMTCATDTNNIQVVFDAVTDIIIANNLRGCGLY

Each compound was assayed against Guanine nucleotide-binding protein G(o) subunit alpha (Homo sapiens) (UniProt P09471) (assay: RGS7-Galphao binding modulators, primary screen, biochemical, multiplexed bead flow cytometry (AID 1439;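 further: fluorescent Galphao held in activated GDP-AlF4 state binding bead-coupled RGS7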)). Conditions: at 10 µM, actives lie on both sides.

Row | SMILES | binding response (% of control)
1 | CC(C)=CC(=O)OCC(=O)Nc1nc(C)c(Cl)cc1Cl | inactive: 101%
2 | O=[N+]([O-])c1cc(Br)cc(C=Nc2ccc3c(c2)OCO3)c1O | inconclusive: 72.2%
3 | O=C1CC(SC(=Nc2ccccc2)Nc2ccccc2)C(=O)N1c1ccc(Cl)cc1 (stereo not drawn) | inactive: 100%
4 | CCc1ccccc1NC(=O)CN(C)C(=O)CSc1nn(-c2ccccc2)c(=S)s1 | inactive: 101%
5 | COC(=O)c1c(C)nc(C)c(C(=O)OC)c1-c1ccsc1 | inconclusive: 105%
6 | CN1C2CCC1CC(NC(=O)CSc1ccc(C(C)(C)C)cc1)C2 (stereo not drawn) | inconclusive: 268%
7 | CC(=O)c1sc(C(=O)O)c(-c2ccco2)c1-c1ccco1 | inconclusive: 95.5%
8 | COCCN(CCOC)S(=O)(=O)c1ccc(C(=O)Nc2ccc([N+](=O)[O-])cc2OC)cc1 | inconclusive: 111%
9 | Nc1c(Cl)ncnc1N/N=C/c1ccc(O)cc1 | inconclusive: 129%
10 | Cc1ccc(NC(=O)c2ccc(F)cc2F)cc1NS(C)(=O)=O | inconclusive: 88.1%
11 | CCc1nc(CN2CCN(c3ccc(C(F)(F)F)cn3)CC2)c(C)[nH]1 | inconclusive: 93.2%
12 | Cc1c(Cl)cccc1NC(=O)Cn1nnc(C(=O)NCc2cccs2)c1N | inconclusive: 88.2%
13 | CCOC(=O)c1cc(C#N)c(SC)nc1C | inconclusive: 99.9%
14 | O=C(N/N=C/c1ccc[nH]1)c1ccccc1OCc1ccc(F)cc1 | inconclusive: 118%
15 | Cc1ccc(Nc2nc(N)nc(CN3CCN(Cc4ccc5c(c4)OCO5)CC3)n2)cc1 | inactive: 103%
16 | Cc1cc(C)c(C(=O)Nc2ccc(C)c(C)c2)c(CC(C)(C)C(=O)O)c1 | inconclusive: 131%
17 | CCOc1ccc(C2c3[nH]c4ccccc4c3CCN2Cc2cccn2-c2ncccn2)cc1 (stereo not drawn) | inconclusive: 76.8%
18 | O=S(=O)(NCc1c(Cl)cccc1Oc1ccccc1)c1ccccc1 | inconclusive: 103%
19 | COc1ccc(N2CCN(C(=O)C3Cc4ccccc4CN3C(=O)c3ccccc3)CC2)cc1 (stereo not drawn) | inconclusive: 106%
20 | O=C(NC1CCCCCC1)C(Cc1ccccc1)n1cccc1 (stereo not drawn) | inconclusive: 93.2%
21 | CC1CN(C(=O)C2(C)CC2(Cl)Cl)CC(C)O1 (stereo not drawn) | inactive: 96.3%
22 | CCN1CCOC(CC(=O)Nc2cccc([N+](=O)[O-])c2)C1=O (stereo not drawn) | inconclusive: 103%

Look-ups from the list:
For binding response (% of control), COCCN(CCOC)S(=O)(=O)c1ccc(C(=O)Nc2ccc([N+](=O)[O-])cc2OC)cc1 is entered as inconclusive: 111%
For binding response (% of control), Cc1cc(C)c(C(=O)Nc2ccc(C)c(C)c2)c(CC(C)(C)C(=O)O)c1 is entered as inconclusive: 131%
For binding response (% of control), O=C1CC(SC(=Nc2ccccc2)Nc2ccccc2)C(=O)N1c1ccc(Cl)cc1 (stereo not drawn) is entered as inactive: 100%

Some of the entries so far, with tabs:
Row	SMILES	binding response (% of control)
7	CC(=O)c1sc(C(=O)O)c(-c2ccco2)c1-c1ccco1	inconclusive: 95.5%
10	Cc1ccc(NC(=O)c2ccc(F)cc2F)cc1NS(C)(=O)=O	inconclusive: 88.1%

Next compounds.

Row | SMILES | binding response (% of control)
23 | CN(C)c1nc(C=C(C#N)C#N)c(Cl)n1-c1ccc(F)cc1 | inconclusive: 115%
24 | COC(=O)c1ccccc1SC(CC(=O)c1ccccc1)c1ccc(F)cc1 (stereo not drawn) | inconclusive: 121%
25 | CC(NCc1ccc(S(N)(=O)=O)cc1)C(=O)Nc1cccc(Cl)c1 (stereo not drawn) | inconclusive: 163%
26 | CCOc1ccc(OCc2cccc(C(=O)N/N=C/c3cccnc3)c2)cc1 | inactive: 107%
27 | NC(=O)c1cc2cc([N+](=O)[O-])ccc2oc1=O | inconclusive: 101%
28 | O=C(COC(=O)c1ccc(O)cc1O)NCCN1C(=O)CSC1=O | inconclusive: 109%
29 | CN(C)S(=O)(=O)c1ccc(Cl)c(NC(=O)COC(=O)/C=C/c2cnc3ccccc3n2)c1 | inconclusive: -356%
30 | CC(C)(C)c1ccc(OCC(=O)N/N=C/C2CC=CCC2)cc1 (stereo not drawn) | inconclusive: 96.2%
31 | Cc1nnc(NNS(=O)(=O)c2ccc(Cl)cc2)[nH]c1=O | inconclusive: -9.83%
32 | CCCCCCNS(=O)(=O)c1ccccc1Br | inconclusive: 110%
33 | COc1ccc(-c2c[n+](CC(=O)OC3CC(C)CCC3C(C)C)c3n2CCC3)cc1 (stereo not drawn) | inconclusive: 114%
34 | COC(=O)c1cccc(C23CC4(C2)[C@H](CN(Cc2ccc(-c5ccccc5)cc2)[C@@H]4c2ccccc2)C3c2ccc(C(F)(F)F)cc2)c1 (stereo partly drawn) | inconclusive: 83.3%
35 | Nc1n[nH]c(C2CC2)c1N=Nc1ccc(Cl)c(Cl)c1 | inconclusive: 80.2%
36 | COc1ccc(-c2cc(C#N)nc(NN)n2)cc1 | inconclusive: 79.6%
37 | Cc1oc(-c2ccccc2)cc1C(=O)Nc1ccc(N(C)C)cc1 | inactive: 98.9%
38 | CC(=O)c1c(N2CCN(C)CC2)nc(=S)n(-c2cc(C)ccc2C)c1C | inconclusive: 108%
39 | Cc1[nH]c(=S)c(C#N)c(C)c1Cc1ccc(Cl)cc1Cl | inconclusive: 90.9%
40 | N#C/C(=C/c1ccc(F)cc1)S(=O)(=O)c1ccccc1 | inconclusive: 152%
41 | O=c1c2nncn2c2cc(C(F)(F)F)ccc2n1CCNc1ncc(C(F)(F)F)cc1Cl | inconclusive: 118%
42 | Cc1ccc(NC(=S)N(Cc2ccccc2)C(C)C)cc1 | inconclusive: 240%
43 | CCOc1ccc(-c2nc(N)ncc2Oc2ccccc2Br)c(O)c1 | inactive: 98.5%
44 | Cc1cccc(C(=O)N[C@H](C(=O)Nc2ccc(C)c(S(=O)(=O)N(C)C)c2)C(C)C)c1 | inactive: 95.2%

Row | SMILES | binding response (% of control)
45 | COc1cccc(OC)c1C(=O)Nc1cccnc1 | inconclusive: 108%
46 | Cc1ccc(C(=O)N/C(=C\c2ccco2)C(=O)NC2CCS(=O)(=O)C2)cc1 (stereo not drawn) | inconclusive: 80.7%
47 | CCN(Cc1ccccc1)S(=O)(=O)c1ccc(OC)c2ncccc12 | inconclusive: 110%
48 | CCO/C([O-])=N/c1sn[n+](C)c1C | inconclusive: 39.6%
49 | N#CC(=C=[N-])c1nc2ccccc2nc1-[n+]1cccc(NC(=O)c2ccccc2)c1 | inconclusive: 126% and inconclusive: 117%
50 | Cc1ccc(-c2nnc(N3CCOCC3)c3ccccc23)cc1S(=O)(=O)NCc1cccnc1 | inconclusive: 121%
51 | CCCCNC(=O)c1onc(CSc2ccncc2)c1C(=O)NCCCC | inconclusive: 95.3%
52 | O=C(Nc1cccc(S(=O)(=O)NC2=NCCC2)c1)C1CCCCC1 | inconclusive: 142%
53 | CCOC(=O)CNC(=O)Cc1ccc(OC)cc1 | inconclusive: 78.6%
54 | Cn1nc(C(C)(C)C)cc1C(=O)NNC(=O)c1ccc(C(F)(F)F)cc1 | inconclusive: 80.6%
55 | CCCCS(=O)(=O)N1C2=NC(C(=O)OC)=C(C(=O)OC)[C@@H]3N(C)c4ccc(OC)cc4[C@]23C[C@H]1C(=O)OC | inconclusive: 115%
56 | CCOC(=O)c1ccc(N2C(=O)CC(Nc3ccc(O)cc3)C2=O)cc1 (stereo not drawn) | inconclusive: 92.8%
57 | O=C(NCc1ccccc1Cl)NCc1ccccc1Cl | inconclusive: 221%
58 | COCCCNc1nc2ccccc2nc1NS(=O)(=O)c1ccc(C)cc1C | inconclusive: 191%
59 | COc1ccccc1NC(=O)CN1CCN(c2ccccc2)CC1 | inconclusive: 105%
60 | CN(C)/C=C/C(=O)c1nn(-c2ccc(F)cc2)ccc1=O | inconclusive: 35.7%
61 | CCOC(=O)c1c(NC(=O)Cn2nc(C(=O)O)c3ccccc3c2=O)sc2c1CCC(C)C2 (stereo not drawn) | inconclusive: 108%
62 | Cc1ccc(C)c(-n2c(-c3csc(C)c3C)n[nH]c2=S)c1 | inactive: 101%
63 | O=C(OCc1nc2ccccc2[n+]([O-])c1C(=O)c1ccccc1)c1ccco1 | inconclusive: 95.1%
64 | CC(=O)c1sc2nsc(SCCN3CCCCC3)c2c1N | inconclusive: 34.1%
65 | COc1ccc(NC(=S)NCc2cccn2C)cc1 | inactive: 94.1%
66 | CCCN1CCN(C(=O)c2ccccc2-c2nc3ccccc3s2)CC1 | inconclusive: 59.3%

Row | SMILES | binding response (% of control)
67 | Cc1csc(Nc2ccc(Cl)cc2)n1 | inconclusive: 102%
68 | N/C(=N\OC(=O)COc1ccc2ccccc2c1Br)c1ccncc1 | inconclusive: 104%
69 | O=C(N/N=C/c1ccc(O)cc1O)/C(=C/c1ccccc1)CCO | inactive: 98.6%
70 | O=C(c1ccc(-c2ccccc2)cc1)c1ccc([N+](=O)[O-])cc1 | inconclusive: 117%
71 | Cc1nc(-c2ccc(S(=O)(=O)N3CCCN(CCc4ccccc4)CC3)s2)cs1 | inconclusive: -127%
72 | Oc1c(C=Nc2ccccc2Cl)[nH]c2ccccc12 | inconclusive: 92.5%
73 | O=C1CN(Cc2nc3cc(Cl)ccc3c(=O)[nH]2)CCN1 | inconclusive: 89.5%
74 | CCn1c(=O)c2cc(C(=O)N(C)c3ccc(OC)cc3OC)sc2c2ccccc21 | inconclusive: 84.1%
75 | CC(C)c1cc(C(C)C)n2nc(N)nc2n1 | inconclusive: 73%
76 | CCC1=C(OC(=O)N(CC)CC)N2C(=O)OC(=NCCc3c[nH]c4ccccc34)[C@]2(Cc2ccccc2)[C@H]2C1=CC[C@H]1C(=O)NC(=O)[C@H]12 | inconclusive: 114%
77 | CCn1c(SCC(=O)Nc2ccc(OC)cc2)nc2nc3c(cc2c1=O)COC(C)(C)C3 | inconclusive: 73.4%
78 | COC(=O)CNc1nc(Cl)nc(N2CCC(C)CC2)n1 | inconclusive: 92.2%
79 | CC(=O)Oc1ccc2c(=O)c(/C=N/c3cc(=O)[nH]c(=S)[nH]3)coc2c1 | inconclusive: 329%
80 | O=C(O)CNC(=S)N(Cc1ccccc1)Cc1cccnc1 | inconclusive: 104%
81 | O=c1[nH]c(CN2CCN(S(=O)(=O)c3ccccc3C(F)(F)F)CC2)nc2sc3c(c12)CCCC3 | inactive: 96.6%
82 | CCN(c1ccccc1)S(=O)(=O)c1ccc(Cl)c(NC(=O)COC(=O)c2ccc[nH]c2=O)c1 | inconclusive: 92.7%
83 | CC1(C(=O)O)Oc2cccnc2NC1=O (stereo not drawn) | inactive: 102%
84 | O=c1[nH]cc(COCC(F)CCl)c(=O)[nH]1 (stereo not drawn) | inconclusive: 114%
85 | Cc1ccc(N2C(N)=C(C#N)C(c3cc(CN4CCOCC4)cs3)C3=C2CC(C)(C)CC3=O)cc1 (stereo not drawn) | inconclusive: 97.2%
86 | COC(=O)/C=C/c1ccc(-n2ccnc2)cc1 | inconclusive: 123%
87 | O=C1C2C3C=CC(C2C(=O)N1c1ccc(O)cc1)C1C2C(=O)N(c4ccc(O)cc4)C(=O)C2C31 (stereo not drawn) | inconclusive: 68.8%
88 | Cn1ccc(NC(=O)Nc2cccc([N+](=O)[O-])c2)n1 | inactive: 103%
